The supplement of paper PMC4604168 (melanoma cell lines)
The other results are listed elsewhere or left out. Repeats are few or missing, and single values can be far off.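 Imaging used 1,536-well plates; nuclei positive for cleaved PARP by antibody were divided by total DNA-stained nuclei to yield the apoptosis fraction. Doses for screening kept most cells viable, and cell lines differ markedly in resting and induced cleaved-PARP levels.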

How the values were obtained:
Test in all cases: cleaved PARP positive nuclei fraction relative to DMSO control; melanoma cells; higher = more apoptosis
Conditions in all cases: library dose: low library concentration; 72 h
[1] = tested on: 501Mel
[2] = tested on: A101D
[3] = tested on: A2058
[4] = tested on: A375
[5] = tested on: C32
[6] = tested on: CBRC008 (line from a melanoma biopsy)
[7] = tested on: CBRC014 (line from a melanoma biopsy)
[8] = tested on: CBRC016 (line from a melanoma biopsy)
[9] = tested on: CBRC017 (line from a melanoma biopsy)
[10] = tested on: CBRC034 (line from a melanoma biopsy)
[11] = tested on: COLO792
[12] = tested on: COLO800
[13] = tested on: COLO829
[14] = tested on: G361
[15] = tested on: IPC-298
[16] = tested on: IST-MEL1
[17] = tested on: LB2518-MEL
[18] = tested on: LOXIMVI
[19] = tested on: MEL-HO

Compound	cleaved PARP positive nuclei fraction [1] [%]	cleaved PARP positive nuclei fraction [2] [%]	cleaved PARP positive nuclei fraction [3] [%]	cleaved PARP positive nuclei fraction [4] [%]	cleaved PARP positive nuclei fraction [5] [%]	cleaved PARP positive nuclei fraction [6] [%]	cleaved PARP positive nuclei fraction [7] [%]	cleaved PARP positive nuclei fraction [8] [%]	cleaved PARP positive nuclei fraction [9] [%]	cleaved PARP positive nuclei fraction [10] [%]	cleaved PARP positive nuclei fraction [11] [%]	cleaved PARP positive nuclei fraction [12] [%]	cleaved PARP positive nuclei fraction [13] [%]	cleaved PARP positive nuclei fraction [14] [%]	cleaved PARP positive nuclei fraction [15] [%]	cleaved PARP positive nuclei fraction [16] [%]	cleaved PARP positive nuclei fraction [17] [%]	cleaved PARP positive nuclei fraction [18] [%]	cleaved PARP positive nuclei fraction [19] [%]
Cc1cc(Nc2cc(N3CCN(C)CC3)nc(Sc3ccc(NC(=O)C4CC4)cc3)n2)n[nH]1 [Tozasertib] + Cc1nc(Nc2ncc(C(=O)Nc3c(C)cccc3Cl)s2)cc(N2CCN(CCO)CC2)n1 [dasatanib] (first compound 0.006 µM, partner dose 0.004 µM)	91	188	458	158	87.1	146	109	124	93	48.6	113	159	159	161	143	207	204	132	107
O=C(Nc1cc(C(F)(F)F)cc(C(F)(F)F)c1)c1cc(Cl)ccc1O + C=CCNC1=C2C[C@@H](C)C[C@H](OC)[C@H](O)[C@@H](C)/C=C(\C)[C@H](OC(N)=O)[C@@H](OC)/C=C\C=C(/C)C(=O)NC(=CC1=O)C2=O [Tanespimycin] (first compound 0.016 µM, partner dose 0.002 µM)	89.6	150	109	137	287	105	110	69.7	130	41.9	113	152	200	106	113	65.2	176	96.6	84.3
O=C(/C=C/c1cccnc1)NCCCCC1CCN(C(=O)c2ccccc2)CC1 + CC(=O)O[C@@]12CO[C@@H]1C[C@H](O)[C@@]1(C)C(=O)[C@H](O)C3=C(C)[C@@H](OC(=O)[C@H](O)[C@@H](NC(=O)OC(C)(C)C)c4ccccc4)C[C@@](O)([C@@H](OC(=O)c4ccccc4)[C@H]21)C3(C)C [Docetaxel] (first compound 0.01 µM, partner dose 0.0001 µM)	283	123	4160	2130	161	2200	155	1360	668	1990	567	318	448	2240	550	256	289	105	464
Cc1cc(Nc2cc(N3CCN(C)CC3)nc(Sc3ccc(NC(=O)C4CC4)cc3)n2)n[nH]1 [Tozasertib] + NC(=O)c1ccc(N(C(N)=O)c2c(F)cccc2F)nc1-c1ccc(F)cc1F [VX702] (first compound 0.006 µM, partner dose 0.4 µM)	92.4	193	98.2	236	87.8	24	77	39.7	109	72.5	29.8	192	101	61.7	44.3	62	116	424	86.4
N#CC[C@H](C1CCCC1)n1cc(-c2ncnc3[nH]ccc23)cn1 [ruxolitinib] + CCCS(=O)(=O)Nc1ccc(F)c(C(=O)c2c[nH]c3ncc(Cl)cc23)c1F [PLX4720] (first compound 1 µM, partner dose 0.08 µM)	60.8	81.9	120	276	101	92.6	95.8	100	118	219	136	60.1	82.5	34.7	88.9	128	82.3	161	89.5
O=C(Nc1cc(C(F)(F)F)cc(C(F)(F)F)c1)c1cc(Cl)ccc1O + Cc1cn(-c2cc(NC(=O)c3ccc(C)c(Nc4nccc(-c5cccnc5)n4)c3)cc(C(F)(F)F)c2)cn1 [nilotinib] (first compound 0.016 µM, partner dose 0.2 µM)	95.9	99.2	127	108	77.3	70.3	108	88.6	101	67.4	236	176	169	141	91.7	65.8	299	30.3	103
Cc1cc(Nc2cc(N3CCN(C)CC3)nc(Sc3ccc(NC(=O)C4CC4)cc3)n2)n[nH]1 [Tozasertib] + CCN(CC)CCNC(=O)c1c(C)[nH]c(/C=C2\C(=O)Nc3ccc(F)cc32)c1C [sunitinib] (first compound 0.006 µM, partner dose 0.4 µM)	164	43.8	40.4	85.7	89.4	69	80.1	118	96.2	33.3	110	85.7	91.4	121	57.7	181	110	119	75.8
Cc1cc(Nc2cc(N3CCN(C)CC3)nc(Sc3ccc(NC(=O)C4CC4)cc3)n2)n[nH]1 [Tozasertib] + C#Cc1cccc(Nc2ncnc3cc(OCCOC)c(OCCOC)cc23)c1 [erlotinib] (first compound 0.006 µM, partner dose 0.8 µM)	93	394	110	119	87.5	356	107	103	95	69.8	53.3	144	70.9	46.7	157	131	53.4	169	96.5
